Experimental data published in EP1956033A1, “Acrylimides with initiator characteristics” (Mondi Release Liner Austria GmbH, priority 2007, dated 2008).
For at least one compound, name, drawing or mass did not settle the structure.

Assay: Test under self-initiation: irradiation and polymerisation in bulk without additional initiator
Design: unit not given here
Conditions: 100 wt-% compound, no additional initiator

C=CC(=O)N(CCC[Si](C)(C)O[Si](C)(C)CCCN(C(=O)C=C)C(=O)C=C)C(=O)C=C [[21], N,N'-(4,6-Disila-5-oxa-4,4,6,6-tetramethyl-1,9-nonylen)bisacrylimid]
Rate: 44, 5
